Some entries share one result that the patent states for a list of compounds.
Columns and labels:
[1] = molecular target: T1, fatty acid synthase (FASN) in colon cancer cells HCT116 (Homo sapiens, UniProt P49327); assay: FASN enzyme activity detection in treated HCT116 cells (NADPH absorbance at 340 nm); format: cell-based; details: in words
T1 construct: endogenous in cells; host or cells: HCT116 colon cancer cells

Protein sequences, listed by entry. Tags and fused reporters are not part of them.
UniProt P49327, whole entry: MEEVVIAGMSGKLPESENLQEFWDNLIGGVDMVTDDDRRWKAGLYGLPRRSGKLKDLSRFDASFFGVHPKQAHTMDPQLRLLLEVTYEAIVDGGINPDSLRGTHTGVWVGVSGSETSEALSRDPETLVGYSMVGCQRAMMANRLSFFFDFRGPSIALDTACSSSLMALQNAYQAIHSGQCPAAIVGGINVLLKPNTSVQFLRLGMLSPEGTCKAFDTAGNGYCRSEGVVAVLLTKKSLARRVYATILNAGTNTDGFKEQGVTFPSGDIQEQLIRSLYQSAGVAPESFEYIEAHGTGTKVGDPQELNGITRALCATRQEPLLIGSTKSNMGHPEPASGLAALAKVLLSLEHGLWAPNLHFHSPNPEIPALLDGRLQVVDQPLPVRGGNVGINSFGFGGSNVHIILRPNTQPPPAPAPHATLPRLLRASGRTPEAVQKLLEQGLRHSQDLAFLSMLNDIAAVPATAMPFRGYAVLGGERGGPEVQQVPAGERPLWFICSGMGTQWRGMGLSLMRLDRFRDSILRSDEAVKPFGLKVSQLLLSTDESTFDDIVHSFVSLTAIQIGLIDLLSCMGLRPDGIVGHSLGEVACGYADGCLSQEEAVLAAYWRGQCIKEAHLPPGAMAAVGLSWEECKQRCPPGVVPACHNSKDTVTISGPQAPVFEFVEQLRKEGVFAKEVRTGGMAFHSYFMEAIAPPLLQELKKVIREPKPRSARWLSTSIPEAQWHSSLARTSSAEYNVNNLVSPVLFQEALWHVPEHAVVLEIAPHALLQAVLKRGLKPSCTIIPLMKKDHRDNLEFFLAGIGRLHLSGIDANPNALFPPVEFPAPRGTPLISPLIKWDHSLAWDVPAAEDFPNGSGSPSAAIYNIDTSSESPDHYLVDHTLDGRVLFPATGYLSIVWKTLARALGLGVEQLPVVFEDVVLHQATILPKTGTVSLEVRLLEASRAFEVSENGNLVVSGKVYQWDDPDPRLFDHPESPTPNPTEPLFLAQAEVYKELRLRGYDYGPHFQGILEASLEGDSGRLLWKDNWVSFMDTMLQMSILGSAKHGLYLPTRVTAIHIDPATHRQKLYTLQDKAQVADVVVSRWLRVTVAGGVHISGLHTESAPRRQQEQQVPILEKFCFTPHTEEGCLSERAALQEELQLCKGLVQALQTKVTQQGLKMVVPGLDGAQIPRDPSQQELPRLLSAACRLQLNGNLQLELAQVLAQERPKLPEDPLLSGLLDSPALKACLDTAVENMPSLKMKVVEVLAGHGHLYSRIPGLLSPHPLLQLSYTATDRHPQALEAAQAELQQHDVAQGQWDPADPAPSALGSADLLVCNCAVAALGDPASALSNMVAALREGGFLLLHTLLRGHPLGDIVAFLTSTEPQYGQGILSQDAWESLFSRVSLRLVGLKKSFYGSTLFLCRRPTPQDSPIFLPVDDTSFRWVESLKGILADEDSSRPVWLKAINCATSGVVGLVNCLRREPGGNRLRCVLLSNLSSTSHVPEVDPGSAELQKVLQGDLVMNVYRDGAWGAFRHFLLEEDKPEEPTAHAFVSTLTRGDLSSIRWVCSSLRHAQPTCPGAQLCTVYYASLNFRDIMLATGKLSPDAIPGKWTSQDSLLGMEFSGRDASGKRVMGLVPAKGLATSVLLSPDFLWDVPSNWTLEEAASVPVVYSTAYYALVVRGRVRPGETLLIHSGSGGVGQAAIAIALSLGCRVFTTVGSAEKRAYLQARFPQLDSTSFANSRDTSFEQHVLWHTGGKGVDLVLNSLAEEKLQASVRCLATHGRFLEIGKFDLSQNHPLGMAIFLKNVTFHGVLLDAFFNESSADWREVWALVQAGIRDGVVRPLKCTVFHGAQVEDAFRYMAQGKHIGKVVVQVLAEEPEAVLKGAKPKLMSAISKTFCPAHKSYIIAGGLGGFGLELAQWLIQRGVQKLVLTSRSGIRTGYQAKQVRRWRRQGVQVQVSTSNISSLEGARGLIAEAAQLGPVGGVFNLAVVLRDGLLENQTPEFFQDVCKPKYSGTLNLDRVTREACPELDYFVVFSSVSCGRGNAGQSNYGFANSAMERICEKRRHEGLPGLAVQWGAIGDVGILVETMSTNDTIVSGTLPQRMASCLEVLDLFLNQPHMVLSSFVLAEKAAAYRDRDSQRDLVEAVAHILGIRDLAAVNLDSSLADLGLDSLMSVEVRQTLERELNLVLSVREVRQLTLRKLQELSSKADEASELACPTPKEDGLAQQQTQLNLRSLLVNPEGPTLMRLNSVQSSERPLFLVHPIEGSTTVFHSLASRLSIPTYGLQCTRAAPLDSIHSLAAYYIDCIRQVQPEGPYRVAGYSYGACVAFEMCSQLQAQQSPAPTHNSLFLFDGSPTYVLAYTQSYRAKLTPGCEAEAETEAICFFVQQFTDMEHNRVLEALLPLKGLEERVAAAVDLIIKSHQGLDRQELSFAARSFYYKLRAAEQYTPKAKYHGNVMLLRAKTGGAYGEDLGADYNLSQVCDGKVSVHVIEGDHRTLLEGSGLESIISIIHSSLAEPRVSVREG

[2] = system: FASN protein in colon cancer cells HCT116; assay: FASN expression detection by Western-blot; format: cell-based; details: HCT116, FIG. 1

Row | SMILES | inhibitory effect on FASN activity compared with cerulenin [1] | expression of FASN [2]
1 | O=C(CCCC(=O)Nc1ccc(Br)cc1)NNC(=O)c1cc(Br)ccc1O [Compound I-4] | significantly higher than that of cerulenin | not changed significantly
2 | COc1ccc(Br)cc1CNC(=O)NCCCC(=O)Nc1ccc(Br)cc1 [Compound I-2] | significantly higher than that of cerulenin | not changed significantly
3 | O=C(CCC(=O)Nc1ccccc1)/N=C/Cc1ccccc1 [Compound I-8] | significantly higher than that of cerulenin | not changed significantly
4 | O=C(CCCNC(=O)NCc1cc(Br)ccc1O)Nc1ccc(Br)cc1 [Compound I-3] | significantly higher than that of cerulenin | not changed significantly
5 | O=C(CCCC(=O)Nc1ccc(Br)cc1)N/N=C/c1cc(Br)ccc1O [Compound I-1] | significantly higher than that of cerulenin | not changed significantly
6 | O=C(CCC(=O)Nc1ccccc1)/N=C/c1ccccc1 [Compound I-6] | significantly higher than that of cerulenin | not changed significantly
7 | O=C(CCC(=O)Nc1ccccc1)NC(=O)c1ccccc1 [Compound I-7] | significantly higher than that of cerulenin | not changed significantly

Source: patent US11911353B2, “Fatty acid synthase inhibitor and application thereof” (Jiangnan University, priority 2019, dated 2024)
